The results in this text go back to PubChem BioAssay AID328 (DTP/NCI, 2004).

The list does not hold the whole screen: it is rich in T/C values a quarter to a half above the control, in often repeated tests (any T/C) and in doses without a T/C. Further doses and runs are listed elsewhere. T/C gives the treated animals as a percentage of the vehicle group. Some doses have a count of surviving animals in place of a T/C: the source holds a T/C of zero for them, seemingly a mark for toxic or unscored doses. Some doses without a T/C left all or most animals alive at the check, yet need not have been tolerated: survival well below the control is almost never listed, so the zero probably covers shortened survival too. Counts of survivors are from the toxicity check (mostly the fifth day) where no day follows; animals may have died later. Schedules are NCI's codes, read here as Q, the interval in days (D) or hours (H), X, the number of doses. Some entries hold several experiments; their values stand side by side, smallest first. Where survival is the endpoint, the PubChem record calls one and a half times the control and up active, and a quarter to a half above the control has no call in these data; cut-offs in other NCI protocols can differ.

The assay has as its system BDF1 mice, P388 leukemia ip, median survival T/C. In words: NCI In Vivo Anticancer Drug Screen. Data for tumor model P388 Leukemia (intraperitoneal) in B6D2F1 (BDF1) mice. The conditions noted are these: T/C endpoint: median survival time, higher T/C = longer survival. In outline: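 T/C = treated-group survival ÷ vehicle-control survival; tumour transplanted into mice before dosing.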

The mark [1] stands for this setting: dose: 200.0 mg/kg/injection, schedule: Q01DX009 (ip), vehicle: saline with Tween-80.

As for `CC1(c2ccco2)C(=O)NC(=O)N1C(=O)CCl` (stereo unspecified), the survivor count under setting [1] is recorded as 2 of 6; the survivor count (dose: 300.0 mg/kg/injection, schedule: Q01DX009 (ip), vehicle: saline with Tween-80) was 0 of 6; the survivor count (dose: 400.0 mg/kg/injection, schedule: Q04DX003 (ip), vehicle: saline with Tween-80) is 3 of 6.

In the case of `C=Cn1ccnc1C(O)(c1ccc(Cl)cc1)c1ccc(Cl)cc1`, the T/C (dose: 50.0 mg/kg/injection, schedule: Q01DX009 (ip), vehicle: saline with Tween-80) is 125 % of control and the T/C under setting [1] was 132 % of control.

As to `Brc1cnc[nH]1`, the T/C (dose: 200.0 mg/kg/injection, schedule: Q04DX003 (ip), vehicle: water) was 127 % of control. For the same molecule, the survivor count (dose: 400.0 mg/kg/injection, schedule: Q01DX009 (ip), vehicle: water) was 6 of 6.

With `COc1cc(/C=N\O)nc(-c2ccccn2)c1`, for the setting “dose: 200.0 mg/kg/injection, schedule: Q01DX009 (ip), vehicle: saline”, the survivor count was 1 of 3.

Take `C#CCOC1CCCCO1` (stereo unspecified): the T/C is, setting by setting: (dose: 150.0 mg/kg/injection, schedule: Q01DX009 (ip), vehicle: saline with Tween-80) 125 % of control; (dose: 225.0 mg/kg/injection, schedule: Q01DX009 (ip), vehicle: saline with Tween-80) 145 % of control; (dose: 335.0 mg/kg/injection, schedule: Q01DX009 (ip), vehicle: saline with Tween-80) 135 % of control.

For `Clc1ccc2nnnn2n1`, the T/C reads like this: (dose: 32.5 mg/kg/injection, schedule: Q01DX009 (ip), vehicle: saline with Tween-80) 132 % of control; (dose: 65.0 mg/kg/injection, schedule: Q01DX009 (ip), vehicle: saline with Tween-80) 126 and 137 % of control; (dose: 130.0 mg/kg/injection, schedule: Q01DX009 (ip), vehicle: saline with Tween-80) 127 % of control; (dose: 160.0 mg/kg/injection, schedule: Q01DX009 (ip), vehicle: saline with Tween-80) 128 % of control.

`O=CC(NC(=O)N(CCCl)N=O)C(O)C(O)C(O)CO` (stereo unspecified): the T/C is 146 % of control (dose: 2.0 mg/kg/injection, schedule: Q01DX009 (ip), vehicle: saline); 129 % of control (dose: 3.0 mg/kg/injection, schedule: Q01DX009 (ip), vehicle: saline); 146 % of control (dose: 4.5 mg/kg/injection, schedule: Q01DX009 (ip), vehicle: saline). In addition, the survivor count (dose: 30.0 mg/kg/injection, schedule: Q04DX003 (ip), vehicle: saline) is listed as 8 of 8; the survivor count (dose: 45.0 mg/kg/injection, schedule: Q01DX001 (ip), vehicle: saline) is reported as 6 of 6; the survivor count (dose: 67.0 mg/kg/injection, schedule: Q01DX001 (ip), vehicle: saline) is 9 of 10 and 6 of 6.
